Results deposited as PubChem BioAssay AID1224828 (NIAID, 2016)
Assay: 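Find genes required for NF-kappaB p65 moving into the nucleus after LPS in mouse macrophages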 (primary screen). Cell system: mouse RAW264.7 G9 macrophage reporter cells (GFP-p65, Tnf promoter-mCherry). Reagents: siRNA pool against mouse genes, 100 nM. Duration: 2 days siRNA transfection, then 40 min LPS before fixation. Conditions: LPS (Salmonella minnesota R595) at 10 ng/ml. Read-out: 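Imaged p65 nuclear translocation ratio, normalised to the plate median, converted to robust z-scores and averaged across two replicates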. Reading the numbers: p65 translocation robust z-score: higher = more nuclear NF-kappaB p65 after LPS than the plate median; nuclear/cytoplasmic p65 ratio: higher = more nuclear NF-kappaB p65. Call rule: 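Called active when z exceeds 3.3 or falls under -1.56 (median of Tlr4 controls), giving activity score of at least 50; no calls for control wells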. Calls: active = hit (p65 shift raised or lowered); inactive = no clear change.
In all, the deposit lists about 17,000 reagents; this is an unselected part. 762 of them (4.5%) count as active. 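Active calls include both raised and lowered p65 entry, mostly lowered; wells with fewer than 50 cells lack a z-score.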 The raw values are shown without normalisation. A number with no mark means an inactive call.

With Sncaip, what was measured?
nuclear/cytoplasmic p65 ratio, rep 1: 1.45; nuclear/cytoplasmic p65 ratio, rep 2: 1.22; low cell count flag: fewer than 50 cells per well; well left out of scoring

Which result is listed for Ppil4?
p65 translocation robust z-score: -0.36; nuclear/cytoplasmic p65 ratio, rep 1: 1.33; nuclear/cytoplasmic p65 ratio, rep 2: 1.15; low cell count flag: enough cells to score

For Hsp90b1, what does the deposit list?
p65 translocation robust z-score: -0.96; nuclear/cytoplasmic p65 ratio, rep 1: 1.34; nuclear/cytoplasmic p65 ratio, rep 2: 1.4; low cell count flag: enough cells to score

For Epc2, what does the deposit list?
p65 translocation robust z-score: 1.84; nuclear/cytoplasmic p65 ratio, rep 1: 1.85; nuclear/cytoplasmic p65 ratio, rep 2: 1.68; low cell count flag: enough cells to score

For Stat3, what does the deposit list?
p65 translocation robust z-score: -0.02; nuclear/cytoplasmic p65 ratio, rep 1: 1.55; nuclear/cytoplasmic p65 ratio, rep 2: 1.55; low cell count flag: enough cells to score

Which result is listed for Or6z1?
nuclear/cytoplasmic p65 ratio, rep 1: 1.62; nuclear/cytoplasmic p65 ratio, rep 2: 1.47; low cell count flag: fewer than 50 cells per well; well left out of scoring

With Ctdsp1, how do the results read?
p65 translocation robust z-score: -0.24; nuclear/cytoplasmic p65 ratio, rep 1: 1.46; nuclear/cytoplasmic p65 ratio, rep 2: 1.33; low cell count flag: enough cells to score

Which result is listed for Srpk1?
p65 translocation robust z-score: -0.15; nuclear/cytoplasmic p65 ratio, rep 1: 1.29; nuclear/cytoplasmic p65 ratio, rep 2: 1.36; low cell count flag: enough cells to score

For Gem, how do the results read?
p65 translocation robust z-score: 1.57; nuclear/cytoplasmic p65 ratio, rep 1: 1.62; nuclear/cytoplasmic p65 ratio, rep 2: 1.59; low cell count flag: enough cells to score

With Rad51ap1, what does the deposit list?
p65 translocation robust z-score: -0.15; nuclear/cytoplasmic p65 ratio, rep 1: 1.51; nuclear/cytoplasmic p65 ratio, rep 2: 1.35; low cell count flag: enough cells to score

What did the screen give for Sack1g?
nuclear/cytoplasmic p65 ratio, rep 1: 1.77; nuclear/cytoplasmic p65 ratio, rep 2: 1.34; low cell count flag: fewer than 50 cells per well; well left out of scoring

For Lhfpl4, what was measured?
p65 translocation robust z-score: -1.24; nuclear/cytoplasmic p65 ratio, rep 1: 1.34; nuclear/cytoplasmic p65 ratio, rep 2: 1.41; low cell count flag: enough cells to score

With Ostf1, what was measured?
p65 translocation robust z-score: 0.69; nuclear/cytoplasmic p65 ratio, rep 1: 1.6; nuclear/cytoplasmic p65 ratio, rep 2: 1.45; low cell count flag: enough cells to score

What did the screen give for Zfand2a?
p65 translocation robust z-score: 1.19; nuclear/cytoplasmic p65 ratio, rep 1: 1.48; nuclear/cytoplasmic p65 ratio, rep 2: 1.75; low cell count flag: enough cells to score

With Dio2, what does the deposit list?
p65 translocation robust z-score: 0.26; nuclear/cytoplasmic p65 ratio, rep 1: 1.56; nuclear/cytoplasmic p65 ratio, rep 2: 1.34; low cell count flag: enough cells to score

With Zfand3, what does the deposit list?
p65 translocation robust z-score: -1.21; nuclear/cytoplasmic p65 ratio, rep 1: 1.16; nuclear/cytoplasmic p65 ratio, rep 2: 1.1; low cell count flag: enough cells to score

With Irf2bpl, how do the results read?
p65 translocation robust z-score: 2.85; nuclear/cytoplasmic p65 ratio, rep 1: 1.68; nuclear/cytoplasmic p65 ratio, rep 2: 1.89; low cell count flag: enough cells to score

For Acsm2, how do the results read?
p65 translocation robust z-score: -0.13; nuclear/cytoplasmic p65 ratio, rep 1: 1.55; nuclear/cytoplasmic p65 ratio, rep 2: 1.83; low cell count flag: enough cells to score

For Tmem203, what was measured?
p65 translocation robust z-score: 1.94; nuclear/cytoplasmic p65 ratio, rep 1: 1.81; nuclear/cytoplasmic p65 ratio, rep 2: 2.18; low cell count flag: enough cells to score

What is on record for Ptpn5?
p65 translocation robust z-score: -0.56; nuclear/cytoplasmic p65 ratio, rep 1: 1.66; nuclear/cytoplasmic p65 ratio, rep 2: 1.25; low cell count flag: enough cells to score

Which result is listed for 2810032G03Rik?
p65 translocation robust z-score: -1; nuclear/cytoplasmic p65 ratio, rep 1: 1.29; nuclear/cytoplasmic p65 ratio, rep 2: 1.31; low cell count flag: enough cells to score

Which result is listed for Pdk2?
p65 translocation robust z-score: 1.65; nuclear/cytoplasmic p65 ratio, rep 1: 2; nuclear/cytoplasmic p65 ratio, rep 2: 1.54; low cell count flag: enough cells to score

For Eya3, how do the results read?
p65 translocation robust z-score: 0.5; nuclear/cytoplasmic p65 ratio, rep 1: 1.58; nuclear/cytoplasmic p65 ratio, rep 2: 1.39; low cell count flag: enough cells to score

With Mon2, what does the deposit list?
nuclear/cytoplasmic p65 ratio, rep 1: 1.29; nuclear/cytoplasmic p65 ratio, rep 2: 1.28; low cell count flag: fewer than 50 cells per well; well left out of scoring

With Mmp19, how do the results read?
p65 translocation robust z-score: -0.47; nuclear/cytoplasmic p65 ratio, rep 1: 1.43; nuclear/cytoplasmic p65 ratio, rep 2: 1.24; low cell count flag: enough cells to score

With Srfbp1, what does the deposit list?
p65 translocation robust z-score: 0.05; nuclear/cytoplasmic p65 ratio, rep 1: 1.36; nuclear/cytoplasmic p65 ratio, rep 2: 1.51; low cell count flag: enough cells to score

With Serpina10, how do the results read?
p65 translocation robust z-score: -0.35; nuclear/cytoplasmic p65 ratio, rep 1: 1.44; nuclear/cytoplasmic p65 ratio, rep 2: 1.57; low cell count flag: enough cells to score
